These results are taken from publication PMC7819943, “Rice protein-binding microarrays: a tool to detect cis-acting elements near promoter regions in rice”.

Sequences of proteins named here, by UniProt entry; tags and fusion partners are left off.
UniProt Q0JBA9, entry or part of it: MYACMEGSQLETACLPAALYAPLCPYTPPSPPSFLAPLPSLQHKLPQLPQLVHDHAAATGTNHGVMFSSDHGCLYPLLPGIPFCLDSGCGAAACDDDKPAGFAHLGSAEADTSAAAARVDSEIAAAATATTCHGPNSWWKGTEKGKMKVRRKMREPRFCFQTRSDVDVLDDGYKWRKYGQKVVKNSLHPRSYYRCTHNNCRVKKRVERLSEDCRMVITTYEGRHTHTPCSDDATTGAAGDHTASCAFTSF

This is one part of the list.

The experiment has as its target OsWRKY34 (Oryza sativa, UniProt Q0JBA9 1-250). Description: protein-binding microarray (RPBM); PBS, 2% BSA, 51.3 ng/ul salmon testes DNA, 50 uM zinc acetate, 200 nM TF, 25 C, 1 h; high values mean tight binding. The note with it: protein: recombinant; tags: N-terminal polyhistidine and DsRed monomer fusion (pET32a); label: CyDye5-dUTP incorporated in the synthesized complementary strand; 3' TTTTT single-stranded linker to array surface; dsDNA, one strand shown. The procedure, abridged:
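Binding signal is defined as the fluorescence intensity of each feature in arbitrary units, read on an Axon 4000B scanner. Transcription factors with N-terminal polyhistidine and DsRed fusions came from E. coli BL21-CodonPlus and were purified on Ni–NTA. They were incubated at 200 nM for 1 h at 25 °C on a custom Agilent array that had been made double-stranded with Cy5-dUTP, with 50 µM zinc acetate present, and the array was washed.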
For “CCAGGTGTACACAGCTCCGACCAGCTTCCTTCACCAATACCGGAGTCACCTAGTGCAG”, the binding signal is 8910 fluorescence intensity (a.u.). With “TTTATTCCGAATATTAATTAATCTCGTATTGGGTTCTTATCGGAGTCACCTAGTGCAG” the figure was 8510 fluorescence intensity (a.u.). To “GGTTTATTTGGGTCAACGGAAGTGAATCATGTTTCTTTGACGGAGTCACCTAGTGCAG” belongs 9220 fluorescence intensity (a.u.); to “AGTTAGCACTCCATAAGAAGAGTGGTTTTGGGGATTGGAACGGAGTCACCTAGTGCAG”, 8160 fluorescence intensity (a.u.); to “CTCCTCCGCCACCGCGCTCGCCTCGCCTCACCGCTGCCTTCGGAGTCACCTAGTGCAG”, 10000 fluorescence intensity (a.u.). Regarding “CTTCTTTTTTTCAGCCAATCACAGTGGAGTTTCCCGTTTCCGGAGTCACCTAGTGCAG”, the binding signal was 8930 fluorescence intensity (a.u.). For “ACATGTGGCCCACGTGGCATTCACGTTGACTCGGCCGTCACGGAGTCACCTAGTGCAG”, the binding signal was 8360 fluorescence intensity (a.u.). Take “ATGTTGCGCAACACACTCTGTCTAATTTGCATGATATCCACGGAGTCACCTAGTGCAG”: the binding signal was 11300 fluorescence intensity (a.u.). As for “AATTACTGCTCTTATTTCTTCAGCACAGATGTCACTAATCCGGAGTCACCTAGTGCAG”, the binding signal was 10600 fluorescence intensity (a.u.).

Consider “CTTTGAAGCCCCGGGTTTGTTGCTGATGCATGGCATTTTCCGGAGTCACCTAGTGCAG”, for which the binding signal is 8740 fluorescence intensity (a.u.). To “GAAAACCTAGGGTTAGGTTTGGTGGGGTTGGCAGCTTTCGCGGAGTCACCTAGTGCAG” belongs 16400 fluorescence intensity (a.u.); to “ACCAACTTTACTAAGTTTTCGGCTATTTTTACAGGTAATTCGGAGTCACCTAGTGCAG”, 11000 fluorescence intensity (a.u.). To “TAAATTTTTCATAACTATTTATATCAAATTTGGAAGAAAACGGAGTCACCTAGTGCAG” belongs 11300 fluorescence intensity (a.u.); to “TAACCATCAATTTCCTCCCTGTTGCCGTACACCTGCAGCTCGGAGTCACCTAGTGCAG”, 8160 fluorescence intensity (a.u.). With “CTCCCGTCTCCTCCGCTCCTTGCGCCGCCAAGACGAGTCGCGGAGTCACCTAGTGCAG” the figure was 9360 fluorescence intensity (a.u.); with “TCGCACCAACTGGTTCCAATTTGATTCATCCCACGTTTCCCGGAGTCACCTAGTGCAG”, 10800 fluorescence intensity (a.u.). Turning to “AGTAGCAGCAGCAGCAGCAGGCAGGAGGGAGTGGGTTTGTCGGAGTCACCTAGTGCAG”, the binding signal was 9600 fluorescence intensity (a.u.). To “CCCGCCACCCGTTTCGCTCCTCACCGCGGATAAAGCGCTCCGGAGTCACCTAGTGCAG” belongs 11900 fluorescence intensity (a.u.); to “ACCACTAACACCGTCCTGATTCGTCAAAGGGTTTAAGCATCGGAGTCACCTAGTGCAG”, 8590 fluorescence intensity (a.u.); to “GACTTCTCCACGTTTCTCTGTGTTTAGGCGTCGCTAGTTACGGAGTCACCTAGTGCAG”, 8300 fluorescence intensity (a.u.). With “TTTGCAGCAGATCATGCCTCGCACATCATGCCGTTTTGTTCGGAGTCACCTAGTGCAG” the figure was 8780 fluorescence intensity (a.u.). In the case of “GGGAGGGTCGGGGTCCTCAAGGTACTCGGTGGCTTCAGACCGGAGTCACCTAGTGCAG”, the binding signal is 9900 fluorescence intensity (a.u.). For “CTCGGTTCCAAATTCCACCTGCATCGCTACTCCAACTCATCGGAGTCACCTAGTGCAG”, the binding signal is 8260 fluorescence intensity (a.u.).
